Source: publication PMC9558416
Results are given in words; binding and its absence hold for the method and conditions named. For some of these results: In cells and extracts the contact can be indirect. Some results given as binding are weak or reduced against the parent protein; the word gives no strength. For some of these results: Sequences can lack the tags named with a protein.

Amino acid sequences for entries named in this document (tags omitted).
UniProt P07355: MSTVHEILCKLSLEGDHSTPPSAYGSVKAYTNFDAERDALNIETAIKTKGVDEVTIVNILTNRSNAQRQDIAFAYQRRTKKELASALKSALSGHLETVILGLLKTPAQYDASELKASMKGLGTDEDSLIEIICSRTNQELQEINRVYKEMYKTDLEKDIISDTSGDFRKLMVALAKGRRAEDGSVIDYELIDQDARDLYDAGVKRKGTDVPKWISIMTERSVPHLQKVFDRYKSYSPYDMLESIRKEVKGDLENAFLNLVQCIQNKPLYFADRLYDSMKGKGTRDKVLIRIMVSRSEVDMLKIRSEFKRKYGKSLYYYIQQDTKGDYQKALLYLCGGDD

Columns and labels:
[1] = biological target: T1, FLAG-RalA (UniProt P11233); experiment: co-IP; RalA-Flag constructs (deletions Δ80–120 and Δ121–160) immunoprecipitated with ANXA2-HA; cells not given
T1 sequence: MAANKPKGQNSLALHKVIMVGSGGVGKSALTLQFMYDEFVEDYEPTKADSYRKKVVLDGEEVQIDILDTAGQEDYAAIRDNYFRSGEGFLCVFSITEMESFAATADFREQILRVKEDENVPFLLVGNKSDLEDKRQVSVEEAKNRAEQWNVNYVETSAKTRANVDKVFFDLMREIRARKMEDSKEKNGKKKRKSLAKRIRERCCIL

[2] = biological target: T1, FLAG-RalA; experiment: co-IP; MDA231 cells with transient RalA overexpression; Pierce Classic Magnetic IP/Co-IP Kit, antibody for FLAG, western blot
[3] = biological target: GST fusion ANXA2 protein (UniProt P07355); experiment: pull-down; GST or GST-ANXA2 recombinant protein on anti-GST Tag magnetic beads, incubated with His-RalA recombinant protein; eluate to western blot; both purified
[4] = biological target: Annexin A2 (ANXA2), endogenous (human (endogenous in MDA231)) (UniProt P07355); experiment: co-IP; endogenous proteins in BC cells; ANXA2-Src also in control or RalA overexpression cells (interaction enhanced) and in DMSO or RBC8 treated cells (binding decreased)

ANXA2-HA (from UniProt P07355 1-339)
binding [1]: binds

Annexin A2 (ANXA2), endogenous (from UniProt P07355 1-339)
binding [2]: binds

B1: 6*His fusion RalA protein (protein, UniProt P11233 1-206)
chain: T1 sequence
binding [3]: binds

B2: RalA, endogenous (protein, UniProt P11233 1-206)
chain: T1 sequence
binding [4]: binds
